Test results reported in patent publication US10975042B2, “Method for purifying an amino acid-n-carboxy anhydride” (SHIN-ETSU CHEMICAL CO., LTD., priority 2018, dated 2021).

Test: Polymerization inhibiting test: viscosity change of NCA solution with filter aid/additive
Details: 0.2 g NCA (A) in 1.0 g ethyl acetate plus filter aid/additive, visually observed

| Structure (SMILES) | viscosity change of NCA solution, 40° C. (5 min.) | viscosity change of NCA solution, 60° C. (5 min.) |
| --- | --- | --- |
| Cl [HCl in AcOEt, hydrogen chloride, reference compound] | No change | No change |
| O=S(=O)([O-])[O-].[Mg+2] [Magnesium sulfate, magnesium sulfate] | No change | No change |

Structures can show the parent of a compound that is named as a salt.
